Laboratory results as given in patent publication EP2913057B1, “Cancer peptide therapeutics” (Indiana University Research and Technology Corporation, priority 2008, dated 2010).
Entries after “also recorded” stand apart in the source; their conditions may differ. Not every detail of the peptide structures is certain; ends, links or a residue may be inferred.

Key:
[1] = tested on: MCF 10A (non-malignant); test: Cytotoxic effect in non-malignant breast cells, cell death by flow cytometry; assay type: cell-based; parameters: dose or concentration left out as unconfirmed; settings: R9-caPeptide, 48 hours
[2] = tested on: U937 cells; test: Cytotoxicity (apoptosis / cell death) of R9-linked caPCNA peptides by flow cytometry; assay type: cell-based
Description: First, it was tested whether or not the R9 sequence alone had any cytotoxic effect in U937 cells. The U937 cells were treated with up to 100mM of the R9 sequence for 24 hours.
Once it was established that the R9 sequence promoted cellular uptake of the peptide, increasing amounts of R9-caPep were added to U937 cells to determine if the peptide's uptake would have any cytotoxic effect.
To verify that the cytotoxicity of the R9-caPep was due to the PCNA peptide sequence itself, a scrambled peptide using the same eight amino acids, R9-Scrambled, was prepared (Table 3).
The cancer associated epitope of PCNA is also part of the flexible IDCL region of PCNA. This region of PCNA is considered to have a disordered structure. Disordered regions in proteins are usually associated with protein-to-protein interaction sites. […] To determine which amino acids in the R9-caPep sequence are necessary for binding of the peptide to these proteins, peptide constructs were generated that mutated each aminoacid individually to an alanine (Table 3). Each alanine mutant peptide of caPCNA was used to treat U937 cells for 24 hours. An amino acid that is important to protein binding would presumably show decreased cell cytotoxicity when it is substituted with an alanine. Those amino acids which are not critical for binding could be anticipated to show a cytotoxic level similar to that of the unsubstituted peptide. For a comparison of the potential cytotoxic effect of each of the alanine substituted R9-linked caPeptides, U937 cells were treated with 30mM of peptide. […] It was observed that peptides containing an alanine substituted at position aa126 or aa133 show little cytotoxic activity and therefore were likely important for the peptide's activity.

SMILES: CC[C@H](C)[C@H](NC(=O)CNC(=O)[C@H](CC(C)C)NC(=O)[C@H](CS)NC(=O)[C@H](CS)NC(=O)[C@@H](CCCNC(=N)N)NC(=O)[C@@H](CCCNC(=N)N)NC(=O)[C@@H](CCCNC(=N)N)NC(=O)[C@@H](CCCNC(=N)N)NC(=O)[C@@H](CCCNC(=N)N)NC(=O)[C@@H](CCCNC(=N)N)NC(=O)[C@@H](CCCNC(=N)N)NC(=O)[C@@H](CCCNC(=N)N)NC(=O)[C@H](N)CCCNC(=N)N)C(=O)N1CCC[C@H]1C(=O)N[C@@H](CCC(=O)O)C(=O)N[C@@H](CCC(N)=O)C(=O)N[C@@H](CCC(=O)O)C(=O)N[C@@H](Cc1ccc(O)cc1)C(=O)O [R9-caPep]
- % Dead Cells [1]: 18.2%
- cell death ([2]; 30mM of peptide): ~50%
- % cancer cell death ([2]; 30mM of peptide, 24 hours, flow cytometry): 43±10%
- cell death ([2]; 50mM): ~100%
- apoptosis ([2]; R9-caPep concentrations above 20mM): marked increase in apoptotic cells; also recorded: marked increase in apoptosis
